# For at least one entry, the source does not settle the construct or the ends of the probe. For part of these data: The comparison behind a weaker result is the experiment's own reference, which may not be listed here.
# Experiments:
# Test in all cases: fluorescence anisotropy
# [1] = tested on: OBMg group 3 triple mutant (Moorella glycerini); settings: 50 mM NaCl; 50 mM HEPES-NaOH pH 7.2, 50 mM NaCl (50-250 mM in salt series), 20 or 50 nM DNA, 60 min, 25 C; recombinant protein; protein details: His6-SUMO removed; label: 5' FAM on 5' phosphate of strand 1
# [2] = tested on: OBMg group 1 triple mutant (Moorella glycerini); settings: 50 mM NaCl; 50 mM HEPES-NaOH pH 7.2, 50 mM NaCl (50-250 mM in salt series), 20 or 50 nM DNA, 60 min, 25 C; recombinant protein; protein details: His6-SUMO removed; label: 5' FAM on 5' phosphate of strand 1
# [3] = tested on: OBMg H120A (Moorella glycerini); settings: 50 mM NaCl, almost no effect vs WT; 50 mM HEPES-NaOH pH 7.2, 50 mM NaCl (50-250 mM in salt series), 20 or 50 nM DNA, 60 min, 25 C; recombinant protein; protein details: His6-SUMO removed; label: 5' FAM on 5' phosphate of strand 1
# [4] = tested on: OBMg K121A (Moorella glycerini); settings: 50 mM NaCl, almost no effect vs WT; 50 mM HEPES-NaOH pH 7.2, 50 mM NaCl (50-250 mM in salt series), 20 or 50 nM DNA, 60 min, 25 C; recombinant protein; protein details: His6-SUMO removed; label: 5' FAM on 5' phosphate of strand 1
# [5] = tested on: OBMg N103A (Moorella glycerini); settings: 50 mM NaCl, almost no effect vs WT; 50 mM HEPES-NaOH pH 7.2, 50 mM NaCl (50-250 mM in salt series), 20 or 50 nM DNA, 60 min, 25 C; recombinant protein; protein details: His6-SUMO removed; label: 5' FAM on 5' phosphate of strand 1
# [6] = tested on: OBMg group 2 triple mutant (Moorella glycerini); settings: 50 mM NaCl; 50 mM HEPES-NaOH pH 7.2, 50 mM NaCl (50-250 mM in salt series), 20 or 50 nM DNA, 60 min, 25 C; recombinant protein; protein details: His6-SUMO removed; label: 5' FAM on 5' phosphate of strand 1
sequence,measurement,setting,value
GTTCGCAACGAA (double strand) [12 bp dsDNA],binding result,[1],binds more weakly
same,binding result,[2],binds more weakly
same,binding result,[3],binds
same,binding result,[4],binds
same,binding result,[5],binds
same,binding result,[6],binds more weakly
